Laboratory results taken from the supplement of paper PMC11732987, “Enantioselective OTUD7B fragment discovery through chemoproteomics screening and high-throughput optimisation” (Communications Chemistry, 2025).
The list shows a part of the results. The data scatter; read single values as rough.

By UniProt entry, the sequences of proteins in these tests, tags left out. Where a name states a change or a piece, a line headed by the entry shows the natural chain unless it says otherwise.
UniProt Q14692: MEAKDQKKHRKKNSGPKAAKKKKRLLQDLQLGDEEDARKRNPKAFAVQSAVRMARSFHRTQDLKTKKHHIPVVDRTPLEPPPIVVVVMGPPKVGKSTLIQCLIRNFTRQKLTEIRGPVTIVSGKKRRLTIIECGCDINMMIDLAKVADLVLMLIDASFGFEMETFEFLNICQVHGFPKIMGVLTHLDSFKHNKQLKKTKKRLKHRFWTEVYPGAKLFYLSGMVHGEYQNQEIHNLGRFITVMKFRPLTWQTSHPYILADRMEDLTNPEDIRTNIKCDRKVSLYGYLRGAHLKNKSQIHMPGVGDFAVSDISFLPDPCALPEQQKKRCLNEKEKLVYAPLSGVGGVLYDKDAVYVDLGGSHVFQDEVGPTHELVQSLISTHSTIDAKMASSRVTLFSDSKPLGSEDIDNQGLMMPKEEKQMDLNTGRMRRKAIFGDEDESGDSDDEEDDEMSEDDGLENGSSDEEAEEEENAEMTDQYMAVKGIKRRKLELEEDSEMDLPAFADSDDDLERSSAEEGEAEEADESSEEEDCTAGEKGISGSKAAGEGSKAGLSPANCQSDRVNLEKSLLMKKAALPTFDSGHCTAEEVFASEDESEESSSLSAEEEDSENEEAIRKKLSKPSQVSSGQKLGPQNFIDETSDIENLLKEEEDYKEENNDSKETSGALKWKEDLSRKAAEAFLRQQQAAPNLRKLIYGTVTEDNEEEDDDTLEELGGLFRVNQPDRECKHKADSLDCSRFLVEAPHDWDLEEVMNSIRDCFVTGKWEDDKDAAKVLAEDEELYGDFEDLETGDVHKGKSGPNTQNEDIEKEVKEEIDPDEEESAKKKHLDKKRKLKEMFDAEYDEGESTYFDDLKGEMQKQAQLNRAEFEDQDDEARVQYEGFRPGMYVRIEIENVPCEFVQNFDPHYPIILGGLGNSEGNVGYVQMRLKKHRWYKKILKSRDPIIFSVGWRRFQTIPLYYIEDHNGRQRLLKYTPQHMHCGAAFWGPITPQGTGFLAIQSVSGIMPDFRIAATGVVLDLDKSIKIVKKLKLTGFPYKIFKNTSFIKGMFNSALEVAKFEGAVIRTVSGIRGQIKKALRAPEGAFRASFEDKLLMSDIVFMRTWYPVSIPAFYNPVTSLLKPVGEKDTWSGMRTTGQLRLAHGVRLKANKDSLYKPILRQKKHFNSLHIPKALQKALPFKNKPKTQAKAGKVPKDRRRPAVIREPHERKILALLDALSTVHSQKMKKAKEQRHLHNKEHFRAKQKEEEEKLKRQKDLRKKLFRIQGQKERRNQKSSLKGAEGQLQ
UniProt Q76L83: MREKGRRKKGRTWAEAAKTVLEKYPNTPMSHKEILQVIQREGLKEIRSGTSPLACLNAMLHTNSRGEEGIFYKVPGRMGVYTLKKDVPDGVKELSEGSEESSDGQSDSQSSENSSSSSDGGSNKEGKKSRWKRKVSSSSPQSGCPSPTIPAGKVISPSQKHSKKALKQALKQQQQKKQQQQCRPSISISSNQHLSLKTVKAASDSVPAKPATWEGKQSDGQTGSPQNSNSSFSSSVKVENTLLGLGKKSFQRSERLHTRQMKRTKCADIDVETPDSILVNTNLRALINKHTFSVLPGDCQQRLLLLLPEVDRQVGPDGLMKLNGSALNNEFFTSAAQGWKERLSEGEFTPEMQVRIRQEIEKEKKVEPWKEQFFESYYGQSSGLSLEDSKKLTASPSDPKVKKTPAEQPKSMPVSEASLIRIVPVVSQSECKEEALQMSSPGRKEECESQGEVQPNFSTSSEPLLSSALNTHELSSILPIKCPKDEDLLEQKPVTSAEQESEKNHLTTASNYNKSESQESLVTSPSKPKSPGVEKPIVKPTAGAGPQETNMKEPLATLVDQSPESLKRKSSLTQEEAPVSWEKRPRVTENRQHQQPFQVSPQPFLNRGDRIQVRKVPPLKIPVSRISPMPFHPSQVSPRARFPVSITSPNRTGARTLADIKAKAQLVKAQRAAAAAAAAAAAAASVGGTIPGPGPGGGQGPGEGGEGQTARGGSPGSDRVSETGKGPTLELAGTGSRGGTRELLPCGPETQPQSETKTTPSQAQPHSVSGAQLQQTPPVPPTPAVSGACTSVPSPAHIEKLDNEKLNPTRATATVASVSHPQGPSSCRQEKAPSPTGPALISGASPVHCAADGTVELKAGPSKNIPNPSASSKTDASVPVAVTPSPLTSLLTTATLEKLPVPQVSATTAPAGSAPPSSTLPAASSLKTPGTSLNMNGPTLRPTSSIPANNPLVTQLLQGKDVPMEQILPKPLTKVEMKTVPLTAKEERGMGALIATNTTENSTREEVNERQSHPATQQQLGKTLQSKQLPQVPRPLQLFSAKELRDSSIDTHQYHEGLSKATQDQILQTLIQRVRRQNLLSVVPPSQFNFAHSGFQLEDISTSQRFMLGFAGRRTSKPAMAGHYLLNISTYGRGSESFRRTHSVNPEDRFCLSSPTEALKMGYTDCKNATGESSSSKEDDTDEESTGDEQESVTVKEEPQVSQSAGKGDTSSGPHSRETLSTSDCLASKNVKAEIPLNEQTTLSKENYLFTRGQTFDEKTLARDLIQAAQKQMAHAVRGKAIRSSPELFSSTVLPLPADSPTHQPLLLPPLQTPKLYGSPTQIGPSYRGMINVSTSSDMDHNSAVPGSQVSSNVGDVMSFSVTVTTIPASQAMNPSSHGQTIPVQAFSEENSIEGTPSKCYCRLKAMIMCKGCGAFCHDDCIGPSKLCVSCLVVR
UniProt Q13315: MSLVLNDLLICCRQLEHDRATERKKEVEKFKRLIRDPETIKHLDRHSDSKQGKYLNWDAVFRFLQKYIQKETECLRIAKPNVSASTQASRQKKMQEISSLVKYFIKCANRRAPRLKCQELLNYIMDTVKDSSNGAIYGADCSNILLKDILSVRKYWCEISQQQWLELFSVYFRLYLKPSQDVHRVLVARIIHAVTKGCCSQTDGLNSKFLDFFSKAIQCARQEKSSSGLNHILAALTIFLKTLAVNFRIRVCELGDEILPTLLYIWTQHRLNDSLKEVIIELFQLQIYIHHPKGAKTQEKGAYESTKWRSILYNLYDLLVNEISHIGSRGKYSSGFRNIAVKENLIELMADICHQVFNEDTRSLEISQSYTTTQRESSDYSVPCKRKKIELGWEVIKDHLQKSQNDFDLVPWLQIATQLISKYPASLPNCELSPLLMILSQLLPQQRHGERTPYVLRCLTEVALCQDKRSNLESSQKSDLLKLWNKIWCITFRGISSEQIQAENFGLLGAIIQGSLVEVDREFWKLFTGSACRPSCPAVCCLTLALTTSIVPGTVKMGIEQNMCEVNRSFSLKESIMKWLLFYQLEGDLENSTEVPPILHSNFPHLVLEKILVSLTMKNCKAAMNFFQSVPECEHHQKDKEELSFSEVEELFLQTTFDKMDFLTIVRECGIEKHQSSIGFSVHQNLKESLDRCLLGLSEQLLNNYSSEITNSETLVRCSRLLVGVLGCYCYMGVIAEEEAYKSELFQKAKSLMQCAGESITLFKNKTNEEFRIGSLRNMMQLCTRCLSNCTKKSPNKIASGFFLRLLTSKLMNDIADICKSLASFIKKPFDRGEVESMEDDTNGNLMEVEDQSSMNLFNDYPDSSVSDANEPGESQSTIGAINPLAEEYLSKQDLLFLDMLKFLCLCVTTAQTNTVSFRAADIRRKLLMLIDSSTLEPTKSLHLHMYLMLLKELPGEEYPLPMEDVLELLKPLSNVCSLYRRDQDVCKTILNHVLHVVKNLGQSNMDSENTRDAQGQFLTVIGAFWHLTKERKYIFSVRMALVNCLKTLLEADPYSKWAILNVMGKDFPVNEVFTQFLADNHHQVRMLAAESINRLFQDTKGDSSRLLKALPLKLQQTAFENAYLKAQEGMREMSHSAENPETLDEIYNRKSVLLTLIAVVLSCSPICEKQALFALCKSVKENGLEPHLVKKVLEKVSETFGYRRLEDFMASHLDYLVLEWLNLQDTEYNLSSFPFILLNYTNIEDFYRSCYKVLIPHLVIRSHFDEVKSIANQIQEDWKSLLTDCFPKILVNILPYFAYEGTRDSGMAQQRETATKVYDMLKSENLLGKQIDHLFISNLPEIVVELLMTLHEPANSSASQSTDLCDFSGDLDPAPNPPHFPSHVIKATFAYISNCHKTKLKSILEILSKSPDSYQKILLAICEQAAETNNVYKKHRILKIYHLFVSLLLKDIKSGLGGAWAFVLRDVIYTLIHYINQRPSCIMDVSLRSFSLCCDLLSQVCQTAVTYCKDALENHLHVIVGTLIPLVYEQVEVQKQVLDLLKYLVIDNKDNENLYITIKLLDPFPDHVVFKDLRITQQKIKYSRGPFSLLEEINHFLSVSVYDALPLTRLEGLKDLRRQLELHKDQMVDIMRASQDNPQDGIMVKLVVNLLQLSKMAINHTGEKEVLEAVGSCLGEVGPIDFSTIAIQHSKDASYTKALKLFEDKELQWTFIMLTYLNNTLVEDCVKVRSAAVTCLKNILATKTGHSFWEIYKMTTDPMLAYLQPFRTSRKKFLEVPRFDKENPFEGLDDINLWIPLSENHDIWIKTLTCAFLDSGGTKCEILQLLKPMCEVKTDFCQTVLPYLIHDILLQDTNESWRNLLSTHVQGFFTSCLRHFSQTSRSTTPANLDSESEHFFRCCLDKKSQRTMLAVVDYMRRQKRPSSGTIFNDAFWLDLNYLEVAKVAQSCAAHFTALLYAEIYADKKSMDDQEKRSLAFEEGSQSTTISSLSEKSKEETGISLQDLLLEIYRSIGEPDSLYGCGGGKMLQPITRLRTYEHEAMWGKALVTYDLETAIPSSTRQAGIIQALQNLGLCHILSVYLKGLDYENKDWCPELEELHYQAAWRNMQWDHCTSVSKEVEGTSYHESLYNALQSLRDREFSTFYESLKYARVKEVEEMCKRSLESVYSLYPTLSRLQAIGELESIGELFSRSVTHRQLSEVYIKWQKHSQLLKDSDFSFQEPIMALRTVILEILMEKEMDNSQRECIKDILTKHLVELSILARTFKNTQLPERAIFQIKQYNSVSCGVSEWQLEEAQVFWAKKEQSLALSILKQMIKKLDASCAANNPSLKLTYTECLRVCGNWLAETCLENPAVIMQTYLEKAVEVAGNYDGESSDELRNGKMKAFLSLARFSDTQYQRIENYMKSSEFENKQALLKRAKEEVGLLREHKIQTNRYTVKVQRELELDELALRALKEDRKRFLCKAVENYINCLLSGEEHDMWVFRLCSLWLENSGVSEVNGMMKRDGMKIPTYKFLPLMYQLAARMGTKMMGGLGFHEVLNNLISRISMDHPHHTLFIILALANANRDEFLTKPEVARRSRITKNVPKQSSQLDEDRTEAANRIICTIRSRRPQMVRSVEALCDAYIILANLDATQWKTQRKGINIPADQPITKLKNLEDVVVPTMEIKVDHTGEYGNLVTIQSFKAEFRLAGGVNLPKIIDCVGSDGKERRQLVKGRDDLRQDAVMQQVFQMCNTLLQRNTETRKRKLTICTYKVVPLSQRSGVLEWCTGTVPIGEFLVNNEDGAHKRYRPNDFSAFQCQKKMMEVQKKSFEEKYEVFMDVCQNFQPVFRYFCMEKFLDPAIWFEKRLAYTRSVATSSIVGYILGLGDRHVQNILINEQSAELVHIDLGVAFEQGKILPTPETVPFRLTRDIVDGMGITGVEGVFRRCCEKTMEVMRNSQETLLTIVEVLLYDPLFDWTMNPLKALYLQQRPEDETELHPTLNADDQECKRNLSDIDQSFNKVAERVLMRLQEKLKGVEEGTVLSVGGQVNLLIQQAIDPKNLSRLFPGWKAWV
UniProt Q5TC12: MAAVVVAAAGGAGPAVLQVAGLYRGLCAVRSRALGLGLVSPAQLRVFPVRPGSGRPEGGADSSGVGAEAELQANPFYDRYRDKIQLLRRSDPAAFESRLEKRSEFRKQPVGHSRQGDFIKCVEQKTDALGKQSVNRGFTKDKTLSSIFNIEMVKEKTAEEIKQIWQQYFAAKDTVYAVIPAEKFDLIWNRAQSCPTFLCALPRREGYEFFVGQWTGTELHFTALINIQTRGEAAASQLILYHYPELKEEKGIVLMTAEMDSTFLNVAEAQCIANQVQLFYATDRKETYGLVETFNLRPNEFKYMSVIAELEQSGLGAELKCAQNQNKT
UniProt P21283, whole entry, looked up: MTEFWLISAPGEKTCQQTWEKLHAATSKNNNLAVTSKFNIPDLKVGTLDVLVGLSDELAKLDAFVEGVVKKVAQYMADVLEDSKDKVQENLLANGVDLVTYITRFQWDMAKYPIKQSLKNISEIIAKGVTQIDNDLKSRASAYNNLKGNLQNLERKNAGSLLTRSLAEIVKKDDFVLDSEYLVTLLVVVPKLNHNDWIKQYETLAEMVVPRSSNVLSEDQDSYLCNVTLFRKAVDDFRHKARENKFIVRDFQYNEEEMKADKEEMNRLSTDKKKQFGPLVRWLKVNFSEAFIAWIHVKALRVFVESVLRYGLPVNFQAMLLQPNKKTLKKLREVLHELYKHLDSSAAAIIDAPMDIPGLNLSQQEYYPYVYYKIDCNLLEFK

compound: ClCC(=O)N[C@H]1CCCc2ccccc12; experiment: log2 mean competition ratio of IA-DTB cysteine labelling (DMSO/compound) (log2 ratio); higher = stronger cysteine engagement by compound; details: 50 µM; treatment time: 4 h; cell line lysate: HEK293T
Description: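 IA-DTB competitive cysteine chemoproteomics in HEK293T RIPA lysate. Lysates were treated with compound 29 or 30 at 50 or 200 µM for 4 h, then IA-DTB (500 µM, 1 h), trypsin-digested, NeutrAvidin-enriched and analysed by diaPASEF. Competition ratio = intensity DMSO / intensity compound (n=4 treated, n=64 DMSO); binding: mean log2 CR ≥ 1 and p ≤ 0.05 plus QC filters. Target is the cysteine site.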

Target	log2 mean competition ratio
BAZ1A C404 (UniProt Q9NRL2)	-0.784
ATP6V1G1 C69 (UniProt O75348)	-0.0379
ATRX C618 (UniProt P46100)	0.0869
ATR C1343 (UniProt Q13535)	-0.133
ASXL1 C672 (UniProt Q8IXJ9)	-0.223
AXIN1 C221 (UniProt O15169)	-0.129
ATP7A C160 (UniProt Q04656)	-0.609
BCOR C494 (UniProt Q6W2J9)	0.215
BAZ1B C1348 (UniProt Q9UIG0)	0.047
BMS1 C725 (UniProt Q14692)	-0.126
ASXL2 C1225 (UniProt Q76L83)	-0.435
BCAS3 C139 (UniProt Q9H6U6)	0.258
ATM C564 (UniProt Q13315)	-0.258
ATPAF1 C321 (UniProt Q5TC12)	-0.0722
ATG2B C1750 (UniProt Q96BY7)	-0.0816
BIRC6 C2910	0.262
ATXN2 C852	0.83
ASXL2 C144 (UniProt Q76L83)	0.546

Target	log2 mean competition ratio
ATXN7L2 C585 (UniProt Q5T6C5)	0.000952
BCKDHA C197 (UniProt P12694)	-0.0388
ATP11C C200	-0.324
ATM C2021 (UniProt Q13315)	-0.0596
BNIP2 C229	0.034
BACH1 C140 (UniProt O14867)	-0.0445
BCL2L12 C254 (UniProt Q9HB09)	0.0868
ATM C633 (UniProt Q13315)	0.094
ATP6V1C1 C15 (UniProt P21283)	0.941
BMS1 C556 (UniProt Q14692)	-0.0546
ATF7IP C955 (UniProt Q6VMQ6)	0.0382
ATAD5 C1720 (UniProt Q96QE3)	0.0676
BCL2L11 C110 (UniProt O43521)	-0.135
BMP2K C92 (UniProt Q9NSY1)	0.383
ATP13A1 C711 (UniProt Q9HD20)	0.118
ATXN2 C301	-0.507
BDP1 C1797 (UniProt A6H8Y1)	0.0583

same assay, conditions: 200 µM; treatment time: 4 h; cell line lysate: HEK293T

Target	log2 mean competition ratio
BAZ1A C404 (UniProt Q9NRL2)	0.0227
ATP6V1G1 C69 (UniProt O75348)	-0.147
ATRX C618 (UniProt P46100)	0.138
ATR C1343 (UniProt Q13535)	0.0429
ASXL1 C672 (UniProt Q8IXJ9)	0.0159
AXIN1 C221 (UniProt O15169)	0.358
ATP7A C160 (UniProt Q04656)	-0.111
BCOR C494 (UniProt Q6W2J9)	-0.309
BAZ1B C1348 (UniProt Q9UIG0)	-0.104
BMS1 C725 (UniProt Q14692)	0.415
ASXL2 C1225 (UniProt Q76L83)	0.163
BCAS3 C139 (UniProt Q9H6U6)	0.125
ATM C564 (UniProt Q13315)	-0.0094
ATPAF1 C321 (UniProt Q5TC12)	-0.246
ATG2B C1750 (UniProt Q96BY7)	-0.0203
BIRC6 C2910	-0.0608
ATXN2 C852	-0.289
ASXL2 C144 (UniProt Q76L83)	-0.471

Target	log2 mean competition ratio
ATXN7L2 C585 (UniProt Q5T6C5)	0.0472
BCKDHA C197 (UniProt P12694)	0.264
ATP11C C200	-0.215
ATM C2021 (UniProt Q13315)	0.16
BNIP2 C229	0.157
BACH1 C140 (UniProt O14867)	0.281
BCL2L12 C254 (UniProt Q9HB09)	0.23
ATM C633 (UniProt Q13315)	-0.349
ATP6V1C1 C15 (UniProt P21283)	0.286
BMS1 C556 (UniProt Q14692)	0.0705
ATF7IP C955 (UniProt Q6VMQ6)	0.159
ATAD5 C1720 (UniProt Q96QE3)	0.0212
BCL2L11 C110 (UniProt O43521)	-0.0348
BMP2K C92 (UniProt Q9NSY1)	0.0563
ATP13A1 C711 (UniProt Q9HD20)	-0.0653
ATXN2 C301	0.049
BDP1 C1797 (UniProt A6H8Y1)	-0.347
